In PMC8740024:
These are yes or no findings as the source states them, for the method shown. Binding seen in cells or lysates may run through a third protein. Some entries that bind do so weakly or less than the wild type. For some assays here: Where a sequence is shown, tags or fusion partners need not be part of it.

What was measured:
[1] = target: SGIP1α-MP (membrane phospholipid-binding domain of mouse SGIP1α) (mouse) (UniProt Q8VD37); assay: co-IP; co-immunoprecipitation of HA-SGIP1α-MP with GFP-tagged constructs or GFP; which tag was precipitated and the cells are told only in the Supplementary Methods
[2] = target: T1, GFP-SGIP1α-MPΔ34-61 (mouse) (UniProt Q8VD37); assay: as above
T1 sequence: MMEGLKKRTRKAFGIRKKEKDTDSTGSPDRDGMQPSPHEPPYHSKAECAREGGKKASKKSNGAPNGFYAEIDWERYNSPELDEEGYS

B1: SGIP1α-MP (membrane phospholipid-binding domain of mouse SGIP1α) (domain or fragment, UniProt Q8VD37-6 1-33; Q8VD37-6 62-115)
chain: MMEGLKKRTRKAFGIRKKEKDTDSTGSPDRDGMQGKKKAQKTQLLLTSCFWLRALSLTLSQQPSPHEPPYHSKAECAREGGKKASKKSNGAPNGFYAEIDWERYNSPELDEEGYS
[1]
  binding: binds
[2]
  binding: no binding
